Measured values taken from PubChem BioAssay AID1671190 (National Center for Advancing Translational Sciences (NCATS), 2021).
Out of some 580,000 compounds screened, about 6,100 (1.1%) were called active. This list was built around the results that the source calls inconclusive (neither active nor inactive); the mix of calls is not that of the screen. Calls follow the shape of the dose curve; as a rule, active = well fitted inhibition curve with a large enough effect; inconclusive = small, poorly fitted or top-dose-only effect, or another doubt; inactive = no such curve, though single readings can be large or run the other way. Potencies of inconclusive entries are doubtful fits and often do not repeat.

Sequences of proteins named here, by UniProt entry; tags and fusion partners are left off. A change or cut given only in a name is not applied to a line headed by its entry.
UniProt P18054: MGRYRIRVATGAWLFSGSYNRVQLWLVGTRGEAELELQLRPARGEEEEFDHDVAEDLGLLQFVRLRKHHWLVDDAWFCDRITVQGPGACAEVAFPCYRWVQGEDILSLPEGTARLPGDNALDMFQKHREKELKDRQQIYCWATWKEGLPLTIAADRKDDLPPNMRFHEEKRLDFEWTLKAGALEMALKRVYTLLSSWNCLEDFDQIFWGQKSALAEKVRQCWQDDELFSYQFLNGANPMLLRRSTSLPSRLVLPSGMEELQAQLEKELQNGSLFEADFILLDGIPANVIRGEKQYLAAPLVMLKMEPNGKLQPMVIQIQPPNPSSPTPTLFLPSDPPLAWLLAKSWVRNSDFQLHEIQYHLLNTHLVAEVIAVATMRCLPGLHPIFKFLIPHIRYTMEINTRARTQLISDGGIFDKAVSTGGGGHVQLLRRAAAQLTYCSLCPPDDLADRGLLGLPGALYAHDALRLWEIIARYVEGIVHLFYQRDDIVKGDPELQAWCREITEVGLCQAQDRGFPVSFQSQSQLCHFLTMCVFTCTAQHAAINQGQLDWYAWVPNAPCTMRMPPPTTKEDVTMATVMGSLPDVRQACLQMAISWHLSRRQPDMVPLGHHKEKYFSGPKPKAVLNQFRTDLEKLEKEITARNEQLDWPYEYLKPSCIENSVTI

Each molecule was assayed against Polyunsaturated fatty acid lipoxygenase ALOX12 (Homo sapiens) (UniProt P18054) (assay: Primary qHTS assay for inhibitors of human arachidonate 12S-lipoxygenase (ALOX12): Round 2). Details: purified 12hLO, xylenol orange hydroperoxide absorbance; activity change, negative = inhibition: at 108 µM (top of the series) unless noted.
Method in brief: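 Purified human 12hLO (150 nM final) in 25 mM Hepes, 0.01% Triton X-100, pH 7.0 was preincubated 15 min at room temperature with compound. Then 40 uM arachidonic acid was added, 30 min. Hydroperoxide was read by Fe-XO absorbance ratio 573/405 nm.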
% is scaled to controls: 0 for no effect and ±100 for the full control effect; potency is read from the fitted curve at half-maximal effect.

Question: Which “activity change, negative = inhibition” value does the source give for `O=C(O)c1ccc2c(c1)oc1ccccc12` here?
Answer: inactive: 7.6%

Question: `O=C(Nc1cc(C(F)(F)F)ccc1N1CCOCC1)c1ccccc1F` was tested. Which “activity change, negative = inhibition” value did it give?
Answer: inactive: -2.68%

Question: With `OC(c1cc(F)cc(Cl)c1)c1ncc(-c2ccc(Cl)cc2)[nH]1` (stereo not drawn) as the molecule, how does the Potency read?
Answer: inconclusive: 44.7 µM [inhibitor, partial curve, poor fit]

Question: With `CC1(C)CC(=O)C2=C(C1)OC1=C(C(=O)CC(C)(C)C1)C2c1ccc(C(=O)O)cc1` as the molecule, how does the Potency read?
Answer: inconclusive: 8.91 µM [inhibitor, partial curve, poor fit]

Question: Which “activity change, negative = inhibition” value does the source give for `COC(=O)N/N=C/c1cc(Cl)cc(Cl)c1OCCCOc1ccccc1` here?
Answer: inactive: -46.4%

Question: With `CC(=O)OC1CCC2C3CCC4=C(CC(F)C(=O)C4)C3CCC12C` (stereo not drawn) as the molecule, how does the Potency read?
Answer: inconclusive: 44.7 µM [inhibitor, partial curve, poor fit]

Question: Which Potency does the source give for `Cc1ccc(-c2csc3ncn(-n4c(C)ccc4C)c(=O)c23)o1` here?
Answer: inconclusive: 100 µM [inhibitor, partial curve, poor fit]

Question: Which Potency does the source give for `O=C(Nc1ccccc1C(F)(F)F)c1cc(=S)[nH]c2ccccc12` here?
Answer: inconclusive: 39.8 µM [inhibitor, partial curve, poor fit]

Question: With `c1ccc(CSc2nc3ccccc3s2)cc1` as the molecule, how does the Potency read?
Answer: inconclusive: 35.5 µM [inhibitor, partial curve, poor fit]

Question: For `Cc1ccc(-n2[nH]c(C)c(C3SCc4cc(C)c(C)cc4CS3)c2=O)cc1`, which Potency is on record?
Answer: inconclusive: 7.94 µM [inhibitor, full curve]

Question: How did the Potency turn out when `CCN(CC)CCOc1ccccc1C(=O)CCc1ccccc1` was run?
Answer: inconclusive: 56.2 µM [inhibitor, partial curve, poor fit]

Question: Which Potency does the source give for `CNC(=S)NNC(=O)c1sccc1OCc1cccc(C(F)(F)F)c1` here?
Answer: inconclusive: 8.91 µM [inhibitor, full curve, poor fit]

Question: Which Potency does the source give for `C[C@H]1O[C@@H](O[C@H]2CC[C@@]3(C)C(CC[C@]4(C)C3C=CC3=C5CC(C)(C)CC[C@]5(CO)[C@H](O)C[C@]34C)[C@]2(C)CO)[C@H](O)[C@@H](O[C@@H]2O[C@H](CO)[C@@H](O)[C@H](O)[C@H]2O)[C@H]1O` (stereo partly drawn) here?
Answer: inconclusive: 50.1 µM [inhibitor, partial curve, poor fit]

Question: How did the Potency turn out when `CCN1CCN(S(=O)(=O)c2ccc(OC)c(Br)c2)CC1` was run?
Answer: inconclusive: 7.08 µM [inhibitor, full curve, poor fit]

Question: Which “activity change, negative = inhibition” value does the source give for `Cc1nc(C)c(C(=O)N2CCCN(Cc3ccncc3)C(c3ccccc3)CC(=O)NCC2)s1` (stereo not drawn) here?
Answer: inactive: 13.2%

Question: How did the Potency turn out when `Cc1cc(=O)[nH]c(SCc2ccc(Cl)cc2)n1` was run?
Answer: inconclusive: 100 µM [inhibitor, single point]

Question: With `C=CCNC(=S)N/N=C/c1ccc(-c2ccc(Cl)cc2Cl)o1` as the molecule, how does the Potency read?
Answer: inconclusive: 44.7 µM [inhibitor, partial curve, poor fit]

Question: With `COC(=O)C1CCN(C(=O)c2sc3ccccc3c2Cl)CC1` as the molecule, how does the “activity change, negative = inhibition” value read?
Answer: inactive: -6.93%

Question: How did the “activity change, negative = inhibition” value turn out when `CC(=O)N(CCS(=O)(=O)c1ccc(Cl)cc1)Cc1cccs1` was run?
Answer: inactive: 30%

Question: How did the Potency turn out when `O=S(=O)(Nc1ccc(O)c(Sc2nc3ccccc3s2)c1)c1ccc(F)cc1` was run?
Answer: inconclusive: 44.7 µM [inhibitor, partial curve]

Question: With `O=C(CCS(=O)(=O)c1ccccc1)NCCS(=O)(=O)c1ccccc1` as the molecule, how does the Potency read?
Answer: inconclusive: 44.7 µM [inhibitor, partial curve, poor fit]

Question: For `COCCNc1nc(-c2ccc(N3CCCC3=O)cc2)cs1`, which Potency is on record?
Answer: active: 11.2 µM

Question: How did the “activity change, negative = inhibition” value turn out when `Cc1ccc(C(=O)N2CCCC(c3nn[nH]n3)C2)cn1` (stereo not drawn) was run?
Answer: inactive: 1.66%

Question: For `COc1ccc(CN2CCC(Cc3ccccc3)CC2)cc1OC`, which Potency is on record?
Answer: inconclusive: 0.355 µM [inhibitor, full curve, poor fit]

Question: Which Potency does the source give for `CCC(=O)Oc1ccc2c(C)c(CC)c(=O)oc2c1` here?
Answer: inconclusive: 6.31 µM [inhibitor, full curve, poor fit]

Question: How did the Potency turn out when `CCOc1ccc(NC(=O)CSc2ccc(-c3sc(-c4ccccc4)nc3C)nn2)cc1` was run?
Answer: inconclusive: 126 µM [inhibitor, partial curve, poor fit]

Question: For `CCCCCn1nc(C(=O)Nc2nc(C)cs2)c2ccccc2c1=O`, which Potency is on record?
Answer: inconclusive: 50.1 µM [inhibitor, partial curve, poor fit]

Question: For `CCOC(=O)/C=C1\Nc2ccccc2OC1=O`, which Potency is on record?
Answer: inconclusive: 44.7 µM [inhibitor, partial curve, poor fit]

Question: For `CCOc1ccc2nc(Cl)c(C3CC(c4ccc(OC)cc4)=NN3S(C)(=O)=O)cc2c1` (stereo not drawn), which “activity change, negative = inhibition” value is on record?
Answer: inactive: -24.6%

Question: Which Potency does the source give for `CCCc1ccc(NC(=O)Cc2c[nH]c3ccccc23)cc1` here?
Answer: inconclusive: 89.1 µM [inhibitor, single point]

Question: For `O=C(CSc1ccc2nnc(-c3ccncc3)n2n1)Nc1ccccc1F`, which “activity change, negative = inhibition” value is on record?
Answer: inactive: -7.14%

Question: For `CCC(CO)Nc1cccc2c1S(=O)(=O)N(Cc1cn(Cc3ccc(Cl)cc3)nn1)Cc1ccccc1O2` (stereo not drawn), which Potency is on record?
Answer: inconclusive: 35.5 µM [inhibitor, partial curve]

Question: How did the “activity change, negative = inhibition” value turn out when `CCc1nc2ccc(C(=O)Nc3cccc(OCC(=O)N(C)C)c3)cn2c1N(C)Cc1ccc(OC)cc1` was run?
Answer: inactive: -3.83%

Question: `COc1ccc(C(=O)Nc2ccc3c(c2)C(=O)NC3=O)cc1` was tested. Which Potency did it give?
Answer: inconclusive: 50.1 µM [inhibitor, partial curve, poor fit]

Question: Which “activity change, negative = inhibition” value does the source give for `O=C(CSc1nc2ccccc2c(=O)n1-c1ccc(F)cc1F)Nc1ccc(N2CCOCC2)cc1` here?
Answer: inactive: 10.3%

Question: Which “activity change, negative = inhibition” value does the source give for `Cc1c(C(=O)C(=O)Nc2ccc(F)cc2)c2ccccc2n1C` here?
Answer: inactive: -39.1%

Question: For `CCCC[C@@H]1CC2=C(C(=O)OC(C)(C)O2)[C@H](c2ccc(C(C)C)cc2)O1`, which Potency is on record?
Answer: inconclusive: 50.1 µM [inhibitor, partial curve, poor fit]

Question: For `Cc1ccc(SCCOCCN2CCOCC2)cc1`, which Potency is on record?
Answer: inconclusive: 25.1 µM [inhibitor, single point]

Question: `CC1(Oc2cnc(Cl)c3ccccc23)CCN(Cc2ccc(OC(F)(F)F)cc2)C1` (stereo not drawn) was tested. Which Potency did it give?
Answer: inconclusive: 44.7 µM [inhibitor, partial curve, poor fit]

Question: How did the “activity change, negative = inhibition” value turn out when `Cc1ccc(C(CC(=O)c2ccco2)SCCO)cc1` (stereo not drawn) was run?
Answer: inactive: -7.74%

Question: With `CCc1cc(C(c2cccc(OC)c2)N2CCOCC2)c(NC(=O)c2ccccc2)s1` (stereo not drawn) as the molecule, how does the “activity change, negative = inhibition” value read?
Answer: inactive: 0%

Question: With `Cc1ccccc1NC(=S)N(CCc1c(C)[nH]c2ccc(F)cc12)Cc1cccnc1` as the molecule, how does the “activity change, negative = inhibition” value read?
Answer: inactive: 2.65%

Question: With `CSc1nc(-c2ccco2)nn1C(=O)c1ccco1` as the molecule, how does the “activity change, negative = inhibition” value read?
Answer: inactive: 144%
